Data taken from patent US20180362994.
The comparison behind a weaker result is the experiment's own reference, which may not be listed here.

System: NtMYC2aΔN (C-terminal bHLH domain) (Nicotiana tabacum)
Assay: competition with a labelled probe
Conditions: 500x mutated cold competitor maintained most of the shifted signal; purified recombinant protein; protein details: GST fusion, cleaved with thrombin; variant of G2-box probe of NtQPT2 promoter

## AGTAGCTGAATCACATTTATTTATGGTTGTTGAATAGT (double strand) [mutated G2-box cold probe]
  binding result: binds more weakly
